Results on 19 substances are retold here after patent US5338725A (The Research Foundation of the State University of New York, priority 1992, dated 1994).

The data set in a line: general procedure: Fmoc solid-phase peptide synthesis; DIC/HOBt. The note with it: for step yield: late stage modification step, acetic acid salt (crude as TFA salt); for crude mass / crude yield: whole synthesis, TFA salt.

Starred links: 1 amine or outer side, 2 acyl side, 3 side chain; linkers in the order of their positions; H or OH if unused. Suc = O=C(CCC(=O)[*:2])[*:1]

Regarding Suc-RGDF-OH, the step yield stood at 42% yield.
In the case of GRGDVG--(p)Abz--GRGDF--NH2, under “scale 0.1 mmol”, the crude mass amounted to 126 mg and the crude yield was found to be 91% yield.
On to GRGDFG--(m)Abz--GRGDF--OH, for which, under “scale 0.1 mmol”, the crude mass was found to be 114 rag and the crude yield is on record as 88 % yield.
For the substance (p)Pht-RGDF-OH, the step yield was determined as 23% yield.
Regarding (GRGDF)2 Lys--GRGDF--NH2, where the note is “scale 0.1 mmol”, the crude mass stood at 221 mg and the crude yield amounted to 100 % yield.
For the substance GRGDSG--(m)Abz--GRGDF--NH2, for the setting “scale 0.1 mmol”, the crude mass was 134 rag and the crude yield was 97 % yield.
With (GRGDF)2 Orn--GRGDF--NH2, under “scale 0.1 mmol”, the crude mass is 232 mg and the crude yield is reported as 100 % yield.
With Pda-RGDF-OH, the step yield was 34% yield.
For the substance GRGDVG--(m)Abz--GRGDF--NH2, under “scale 0.1 mmol”, the crude mass was 127 mg and the crude yield was 93 % yield.
As to GRGDFG--(p)Abz--GRGDF--OH, under “scale 0.1 mmol”, the crude mass was found to be 98 mg and the crude yield came out at 74 % yield.
(RGDFPG)2 Dab--NH2: under “scale 0.1 mmol”, the crude mass turned out to be 141 rag and the crude yield came out at 91% yield.
Regarding (GRGDFG)2 Dab--GRGDF--NH2, where the note is “scale 0.1 mmol”, the crude mass is 160 mg and the crude yield is on record as 86% yield.
As for (GRGDF)2 Lys--NH2, where the note is “scale 0.1 mmol”, the crude mass stood at 182 mg and the crude yield amounted to 100 % yield.
In the case of (BzRGDF)2 Dac--RGDF-OH, for the setting “scale 0.05 mmol”, the crude mass is 72 mg and the crude yield is reported as 80% yield.
Turning to (RGDFPG)2 Dab--G--OH, under “scale 0.1 mmol”, the crude mass is 138 rag and the crude yield is recorded as 87 % yield.
The corresponding values for GRGDFG--(p)Abz--GRGDF--NH2 are 114 rag and 84 % yield.
As to GRGDFG--(m)Abz--GRGDF--NH2, for the setting “scale 0.1 mmol”, the crude mass is on record as 107 rag and the crude yield stood at 79 % yield.
Turning to Bda-RGDF-OH, the step yield came out at 60% yield.
With (GRGDF)2 Orn--NH2, for the setting “scale 0.1 mmol”, the crude mass was 172 mg and the crude yield is 100 % yield.
